Test results as given in article PMC11434016.
These are yes or no findings as the source states them, for the method shown. In cells and extracts the contact can be indirect. Some binding calls cover weakened binding; strength is not graded here. For some of these results: Where a sequence is shown, tags or fusion partners need not be part of it.

Amino acid sequences for entries named in this document (tags omitted).
UniProt P16989: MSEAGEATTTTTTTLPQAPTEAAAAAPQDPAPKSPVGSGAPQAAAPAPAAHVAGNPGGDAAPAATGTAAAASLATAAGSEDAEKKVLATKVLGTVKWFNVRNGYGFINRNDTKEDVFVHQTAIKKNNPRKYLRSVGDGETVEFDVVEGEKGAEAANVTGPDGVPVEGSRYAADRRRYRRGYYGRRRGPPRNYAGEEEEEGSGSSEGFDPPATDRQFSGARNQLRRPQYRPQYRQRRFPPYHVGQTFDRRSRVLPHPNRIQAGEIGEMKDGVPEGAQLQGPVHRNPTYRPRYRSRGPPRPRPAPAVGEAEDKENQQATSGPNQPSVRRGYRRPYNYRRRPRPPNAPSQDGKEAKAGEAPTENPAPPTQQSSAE
UniProt P41091: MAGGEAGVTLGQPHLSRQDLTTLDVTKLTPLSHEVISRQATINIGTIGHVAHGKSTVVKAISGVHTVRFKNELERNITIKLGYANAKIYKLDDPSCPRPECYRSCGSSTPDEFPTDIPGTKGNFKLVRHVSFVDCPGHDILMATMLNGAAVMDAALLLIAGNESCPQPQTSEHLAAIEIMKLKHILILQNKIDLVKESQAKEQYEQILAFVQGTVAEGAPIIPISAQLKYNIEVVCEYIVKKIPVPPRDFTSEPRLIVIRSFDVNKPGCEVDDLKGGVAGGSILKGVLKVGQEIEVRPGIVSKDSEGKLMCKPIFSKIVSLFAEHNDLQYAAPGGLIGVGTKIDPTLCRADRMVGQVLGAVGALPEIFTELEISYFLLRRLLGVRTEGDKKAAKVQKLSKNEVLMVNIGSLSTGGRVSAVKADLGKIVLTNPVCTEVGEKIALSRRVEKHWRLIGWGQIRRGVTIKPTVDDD

Experiments:
[1] = target: T1, FLAG-YTHDF2 (YTH domain family protein 2) (UniProt Q9Y5A9); test: proximity ligation; PC-3 cells transfected with FLAG-YTHDF2, HA-YBX3 and MYC-EIF2S3, 48 h; two primary antibodies of different species, Duolink PLA probes, confocal microscopy; also after PROPER knockdown (interactions markedly weakened)
T1 sequence: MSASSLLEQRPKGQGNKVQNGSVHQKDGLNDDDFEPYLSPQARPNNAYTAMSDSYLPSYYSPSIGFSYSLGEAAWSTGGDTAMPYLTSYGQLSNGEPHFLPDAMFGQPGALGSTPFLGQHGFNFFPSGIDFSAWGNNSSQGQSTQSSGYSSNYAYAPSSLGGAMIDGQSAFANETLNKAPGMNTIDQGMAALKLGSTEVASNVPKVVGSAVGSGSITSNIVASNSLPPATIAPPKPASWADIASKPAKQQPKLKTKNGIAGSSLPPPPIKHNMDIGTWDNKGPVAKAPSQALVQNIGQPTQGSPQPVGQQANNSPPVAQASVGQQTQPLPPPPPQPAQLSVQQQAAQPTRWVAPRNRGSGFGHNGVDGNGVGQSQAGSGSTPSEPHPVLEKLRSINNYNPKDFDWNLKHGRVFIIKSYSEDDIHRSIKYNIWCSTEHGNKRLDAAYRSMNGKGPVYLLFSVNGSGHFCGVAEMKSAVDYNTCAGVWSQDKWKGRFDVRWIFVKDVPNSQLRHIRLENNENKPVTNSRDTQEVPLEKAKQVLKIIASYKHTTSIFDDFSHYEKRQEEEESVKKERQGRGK

[2] = target: HA-YBX3 (UniProt P16989); test: as above
[3] = target: T1, FLAG-YTHDF2 (YTH domain family protein 2); test: co-IP; Myc-EIF2S3 with Flag-YTHDF2 or HA-YBX3 expressed in PC-3 cells; IP lysis buffer (50 mM Tris-HCl pH 7.4, 1 mM EDTA, 50 mM NaCl, 1% Triton X-100), antibody overnight at 4 °C, Protein A/G beads; also in PROPER knockout cells (interaction decreased) and PROPER knockout cells with ectopic PROPER (rescued) or PROPERmut (not rescued)
[4] = target: HA-YBX3 (UniProt P16989); test: as above

Measured: binding

Myc-EIF2S3 (from UniProt P41091 1-472)
binds: all assays above
